Measured values published in PubChem BioAssay AID504467 (National Center for Advancing Translational Sciences (NCATS), 2011).
The campaign covered roughly 330,000 compounds. About 7,700 (2.3%) were called active. The shares of active, inactive and inconclusive entries below differ from those in the screen. Calls follow the shape of the dose curve; as a rule, active = well fitted inhibition curve with a large enough effect; inconclusive = small, poorly fitted or top-dose-only effect, or effect the other way; inactive = flat fitted curve, though single readings scatter. Potencies of inconclusive entries are doubtful fits and often do not repeat.

Experiment: qHTS screen for small molecules that inhibit ELG1-dependent DNA repair in human embryonic kidney (HEK293T) cells expressing luciferase-tagged ELG1; also: nearly all actives have a fitted effect of over 55% in size
Details: HEK293T ELG1-luciferase reporter, luminescence, 16 h, DNA damage induced by 5-fluorouridine; series mostly up to 46.1 µM
Method in brief: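 Overnight (16 hr) co-exposure of 2,000 cells/well to 5-fluorouridine and compound at 37 °C preceded detection. Luciferase was quantified via ONE-Glo luminescence; loss of signal denotes inhibition.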
Potency is read from the fitted curve at half-maximal effect.

SMILES | Potency
CCc1c(C)sc(NC(=O)c2ccccc2[N+](=O)[O-])c1C(N)=O | inactive
CCc1nnc(NC(=O)c2ccc(OC)cc2)s1 | inconclusive: 2.31 µM [activator, full curve]
O=C(Cc1ccccn1)c1ccccc1 | inconclusive: 11.2 µM [activator, partial curve, poor fit]
CC1=NN(c2ccccc2)C(=O)/C1=C\c1sccc1C | inconclusive: 29.1 µM [activator, single point]
COc1ccc(C(=O)Oc2c(OC)cc(C(=S)N3CCOCC3)cc2OC)cc1 | inconclusive: 20.6 µM [inhibitor, single point]
O=C(NCC1CCCO1)NC1CCCCC1 (configuration not stated) | inconclusive: 18.4 µM [activator, partial curve, poor fit]
N#C/C(=C(/O)COC(=O)CSc1ccc(Cl)cc1)c1nc2ccccc2[nH]1 | inconclusive: 18.4 µM [activator, single point]
CC1=NN(C(=O)CSCc2ccccc2)C(O)(c2ccc(Cl)cc2)C1 (configuration not stated) | inactive
Cc1ccc(C)c(OCC(=O)Nc2ccc(N3CCOCC3)cc2)c1 | inconclusive: 23.1 µM [inhibitor, partial curve, poor fit]
CC1CCCCC1NC(=O)C1CCC(CNS(=O)(=O)c2ccccc2)CC1 (configuration not stated) | inconclusive: 23.1 µM [inhibitor, partial curve, poor fit]
CN1Cc2c(N3CCOCC3)nc3sc(C#N)c(N)c3c2CC1(C)C | inconclusive: 20.6 µM [inhibitor, partial curve, poor fit]
Cc1ccccc1-c1nc(CN2CCC(C(=O)NC3CC3)CC2)c(C)o1 | inactive
Nc1ccc(-c2nc3ncccc3o2)cc1 | inconclusive: 18.3 µM [activator, partial curve]
COc1ccc(C(=O)CN2CCN(S(=O)(=O)c3cccc([N+](=O)[O-])c3)CC2)cc1OC | inactive
CCOC(=O)c1c(-c2ccc(C)cc2)csc1NC(=O)c1ccc(N2C(=O)CCC2=O)cc1 | inconclusive: 13 µM [inhibitor, partial curve, poor fit]
CCOc1cc(NC(=S)Nc2cccc(OC)c2)c(OCC)cc1NC(=O)C1CC1 | inconclusive: 29.1 µM [inhibitor, single point]
CCOC(=O)c1c(NCCN(C)C)c2ccccc2[nH]c1=O | inconclusive: 6.51 µM [inhibitor, single point]
CCOc1ccccc1N1CC(C(=O)NC2CCCCCC2)CC1=O (configuration not stated) | inconclusive: 18.3 µM [activator, partial curve, poor fit]
O=C(NCCO)c1scc2c1OCCO2 | inconclusive: 29.1 µM [inhibitor, partial curve, poor fit]
CCNc1ccccc(-c2ccc3ccccc3n2)c1=O | inconclusive: 8.2 µM [activator, partial curve]
CCc1ccccc1NC(=O)c1ccc(CN2CCC(Cc3ccccc3)CC2)cc1 | inactive
CCOC(=O)c1cc2c(C)[nH]c(C)c2cc(C(=O)OCC)c1=O | inconclusive: 20.6 µM [inhibitor, partial curve, poor fit]
COc1cc(-c2nc(S(=O)(=O)c3ccc(Cl)cc3)c(N(C)C)o2)cc(OC)c1OC | active: 8.2 µM

SMILES | Potency
COc1ccc(C(=O)Nc2nc3ccccc3[nH]2)cc1OC | inconclusive: 2.91 µM [activator, partial curve]
S=C(NC1CCCC1)NC1CCCC1 | inactive
CN(Cc1ccccc1)C(=O)c1ccc2c(c1)OCCO2 | inconclusive: 16.4 µM [activator, partial curve, poor fit]
Cc1cccc(C)c1NC(=O)C1c2cccc[n+]2CC(=O)N1Cc1cccs1 (configuration not stated) | inconclusive: 0.0517 µM [activator, single point]
CC(=O)N1N=C(c2ccc(C)cc2)OC1c1cccnc1 (configuration not stated) | inconclusive: 18.3 µM [activator, partial curve]
COc1ccc(C(=O)Cn2nnc(-c3ccccc3NC(=O)c3ccco3)n2)cc1 | inconclusive: 23.1 µM [inhibitor, single point]
COc1ccc(C2=NS(=O)(=O)N(C)C(C(=O)N(C)Cc3ccccc3)=C2)cc1 | inactive
COc1ccc(OCc2cc(C(=O)N(C)CC3CCCCO3)no2)c(Cl)c1 (configuration not stated) | inconclusive: 23.1 µM [activator, single point]
COc1ccc(/C(C)=N/Nc2cccc(C(=O)O)c2)cc1OC | inconclusive: 4.11 µM [activator, partial curve]
COc1cccc(OCCNC(=O)c2ccc(C)cc2)c1 | inconclusive: 23.1 µM [activator, single point]
CCCC(=O)Nc1nc(C)c(-c2csc(Nc3ccccc3C)n2)s1 | inconclusive: 29.1 µM [inhibitor, partial curve, poor fit]
COc1ccc(OC)c(C(=O)N(C)C2CCCN(Cc3ccccc3F)C2)c1 (configuration not stated) | inactive
COc1ccccc1N(CC(=O)NCCSCc1ccccc1)S(=O)(=O)c1ccc(C)cc1 | inconclusive: 23.1 µM [inhibitor, single point]
COc1ccc(C(=O)N2CCN(C(=O)Cc3ccccc3)CC2)cc1 | inactive
CN(Cc1nccs1)C(=O)c1cc(COc2cccc3cnccc23)on1 | inconclusive: 5.8 µM [inhibitor, full curve, poor fit]
COc1ccc(/C(C#N)=C/c2c(-c3ccc(Cl)cc3)nc3c(C)cccn23)cc1 | inactive
CC(=O)Nc1cccc(NC(=O)c2ccc(COc3ccccc3)cc2)c1 | inconclusive: 16.4 µM [activator, partial curve]
O=C(CCn1c(=O)oc2ccccc21)Nc1ccc2c(c1)OCCO2 | inconclusive: 23.1 µM [activator, partial curve]
COc1ccc(S(=O)(=O)Nc2ccc(C)cc2)cc1N(C)S(=O)(=O)c1ccc(Cl)cc1 | inconclusive: 18.4 µM [inhibitor, partial curve, poor fit]
Cc1ccc(S(=O)(=O)N2CCCN(C)c3nc4ccccc4nc32)cc1 | inconclusive: 25.9 µM [inhibitor, partial curve, poor fit]
Cn1c(Cn2nnc3ccccc32)nnc1SCC(=O)N1c2ccccc2Sc2ccccc21 | inconclusive: 17.8 µM [inhibitor, single point]
COc1ccc(CCNC(=O)c2ccc(OCC(=O)N3CCOCC3)c(OC)c2)cc1 | inactive
C=CCCC(=O)Nc1nc(C)c(-c2csc(Nc3ccccc3OC)n2)s1 | inconclusive: 18.4 µM [inhibitor, single point]

A different layout for 4 compounds above.
SMILES	Potency
CN(Cc1ccccc1)C(=O)c1ccc2c(c1)OCCO2	inconclusive: 16.4 µM [activator, partial curve, poor fit]
Cc1cccc(C)c1NC(=O)C1c2cccc[n+]2CC(=O)N1Cc1cccs1 (configuration not stated)	inconclusive: 0.0517 µM [activator, single point]
CC(=O)N1N=C(c2ccc(C)cc2)OC1c1cccnc1 (configuration not stated)	inconclusive: 18.3 µM [activator, partial curve]
COc1ccc(C(=O)Cn2nnc(-c3ccccc3NC(=O)c3ccco3)n2)cc1	inconclusive: 23.1 µM [inhibitor, single point]

(listing goes on)

SMILES | Potency
CCSc1nnc2ccc(-c3ccc(OC)c(OC)c3)nn12 | inconclusive: 6.51 µM [activator, partial curve]
CCOc1ccc(C(=O)C2CCN(C(=O)c3ccc([N+](=O)[O-])cc3)CC2)cc1 | inconclusive: 29.1 µM [activator, single point]
CN(C)C(=O)N1CCN(c2nc(-c3ccccc3)cs2)CC1 | inconclusive: 14.6 µM [activator, partial curve]
Cc1ccccc1C(=O)Nc1ccccc1NC(=O)c1ccccc1C | inconclusive: 16.4 µM [inhibitor, partial curve, poor fit]
CC1CCN(c2ccc(-c3cccc(NC(=O)c4ccco4)c3)nn2)CC1 | inconclusive: 0.73 µM [activator, partial curve]
Cc1cc(C=O)c(C)n1-c1ccc(NC2CCCC2)c([N+](=O)[O-])c1 | inconclusive: 8.91 µM [inhibitor, partial curve]
c1ccc(C2=NNC(=NCc3ccc4c(c3)OCO4)SC2)cc1 | inconclusive: 14.6 µM [activator, partial curve]
COc1ccc2c(c1)CC/C(=C/c1cc(OC)c(OC)c(OC)c1)C2=O | active: 18.3 µM
S=C(Nc1cccnc1)NC1CC2CCC1C2 (configuration not stated) | inconclusive: 23.1 µM [inhibitor, single point]
Cc1ccc(-c2cc(C(F)(F)F)n3nc(C(=O)N4CCN5CCCC5C4)cc3n2)cc1 (configuration not stated) | inactive
CCS(=O)(=O)CCSc1nc2ccccc2s1 | inactive
O=C(Nc1cccc(S(=O)(=O)N2CCCCC2)c1)c1cc2ccccc2o1 | inconclusive: 29.1 µM [inhibitor, single point]
O=[N+]([O-])c1ccc(N2CCN(c3ccccn3)CC2)c(Cl)c1 | inconclusive: 29.1 µM [inhibitor, single point]
CC(=O)c1sc2nsc(SCCN3CCOCC3)c2c1N | inconclusive: 23.1 µM [activator, partial curve]
O=C(C[C@H]1C[C@H](C(=O)N2CCCCC2)[C@@]2(CCc3ccccc3)c3[nH]c4ccc(Cl)cc4c3CCN2C1=O)NCCCn1ccnc1 | inconclusive: 25.9 µM [inhibitor, single point]
CCCNC(=S)Nc1cccc(C(F)(F)F)c1 | inactive
CCOc1ccc(S(=O)(=O)N2CCCCC2)cc1NC(=O)c1cccnc1OCC | inconclusive: 5.8 µM [inhibitor, single point]
CCN(C(=O)COC(=O)CNC(=O)c1ccc(C)cc1)c1c(N)n(Cc2ccccc2)c(=O)[nH]c1=O | inactive
CCOc1ccc(/C=N/NC(=O)c2cc3c(OC)cc(OC)c(OC)c3[nH]2)cc1 | active: 8.2 µM
Cc1ccc(CSc2nnc(SCC(=O)N/N=C/c3ccc(C(=O)O)cc3)s2)cc1 | inconclusive: 16.4 µM [activator, partial curve, poor fit]
Fc1ccccc1N=C1NN=C(c2ccccc2)CS1 | inconclusive: 6.51 µM [activator, single point]
